Chains of the proteins cited; added tags and fusions are not shown.
UniProt Q9UNE7: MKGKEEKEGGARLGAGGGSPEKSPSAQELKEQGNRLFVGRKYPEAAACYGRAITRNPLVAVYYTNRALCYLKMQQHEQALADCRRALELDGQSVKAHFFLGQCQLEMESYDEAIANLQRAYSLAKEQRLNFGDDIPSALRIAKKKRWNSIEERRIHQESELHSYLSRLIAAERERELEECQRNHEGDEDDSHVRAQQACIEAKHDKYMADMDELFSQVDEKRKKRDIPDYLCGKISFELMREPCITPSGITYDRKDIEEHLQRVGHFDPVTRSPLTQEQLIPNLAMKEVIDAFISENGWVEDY

According to article PMC7048933:

T1: Flag-tagged CBX4 (chromobox homolog 4), wild type (human) (UniProt O00257)
T1 sequence: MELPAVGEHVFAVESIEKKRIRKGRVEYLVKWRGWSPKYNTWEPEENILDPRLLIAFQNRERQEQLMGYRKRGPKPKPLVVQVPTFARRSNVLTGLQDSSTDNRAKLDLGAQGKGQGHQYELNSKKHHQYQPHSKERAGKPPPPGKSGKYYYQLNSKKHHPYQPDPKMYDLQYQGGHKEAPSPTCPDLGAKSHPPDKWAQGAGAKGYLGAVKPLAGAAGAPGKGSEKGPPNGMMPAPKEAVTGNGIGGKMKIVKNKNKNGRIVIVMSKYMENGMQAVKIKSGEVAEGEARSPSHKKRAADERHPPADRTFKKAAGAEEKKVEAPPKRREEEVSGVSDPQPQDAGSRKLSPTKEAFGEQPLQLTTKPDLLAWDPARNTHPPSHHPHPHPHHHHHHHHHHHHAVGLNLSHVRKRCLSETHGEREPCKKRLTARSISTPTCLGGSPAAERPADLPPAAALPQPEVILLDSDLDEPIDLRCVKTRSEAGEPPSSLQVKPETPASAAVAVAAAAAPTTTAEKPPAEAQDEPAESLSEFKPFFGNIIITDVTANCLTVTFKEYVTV

B1: endogenous MKRN2 of HEK293T cells (enzyme, UniProt Q9H000 1-416)
chain: MSTKQITCRYFMHGVCREGSQCLFSHDLANSKPSTICKYYQKGYCAYGTRCRYDHTRPSAAAGGAVGTMAHSVPSPAFHSPHPPSEVTASIVKTNSHEPGKREKRTLVLRDRNLSGMAERKTQPSMVSNPGSCSDPQPSPEMKPHSYLDAIRSGLDDVEASSSYSNEQQLCPYAAAGECRFGDACVYLHGEVCEICRLQVLHPFDPEQRKAHEKICMLTFEHEMEKAFAFQASQDKVCSICMEVILEKASASERRFGILSNCNHTYCLSCIRQWRCAKQFENPIIKSCPECRVISEFVIPSVYWVEDQNKKNELIEAFKQGMGKKACKYFEQGKGTCPFGSKCLYRHAYPDGRLAEPEKPRKQLSSQGTVRFFNSVRLWDFIENRESRHVPNNEDVDMTELGDLFMHLSGVESSEP

Target: T1, Flag-tagged CBX4 (chromobox homolog 4), wild type (human)
Experiment: affinity purification with mass spectrometry; HEK293T cells transiently expressing Flag-tagged CBX4; lysed in NETN buffer; Flag-conjugated beads 4 h at 4 °C; five washes; SDS-PAGE, Coomassie staining, indicated bands sequenced by MS

Molecule	binding
endogenous CHIP of HEK293T cells (from UniProt Q9UNE7 1-303) (enzyme)	binds
B1	binds

No constants are given. Whether binding was seen depends on the method and setting. In cells and extracts the contact can be indirect. These calls come from enrichment with a bait or labelling near it, and not all partners need be listed. Where a sequence is shown, tags or fusion partners need not be part of it.
